According to the supplement of paper PMC12823440, “Inhibitors supercharge kinase turnover through native proteolytic circuits” (Nature, 2025):
Structures can show the parent of a compound that is named as a salt. The list shows a part of the results. The calls rarely recur for the same compound in another form.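 Kinases, fused to nanoluciferase, were expressed in K562 cells; luminescence was measured every 4 h from 2 to 18 h as percent of control (DMSO = 100%, positive control = 0%). A time point is decreased if signal falls significantly (2 sigma). Hits were called by the authors by a rule that is not shown; the count of time points alone does not decide it.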

Protein sequences, listed by entry. Tags and fused reporters are not part of them. Lines headed by an entry give the natural chain unless they say otherwise; changes in a name come on top.
UniProt P07949, whole entry, looked up: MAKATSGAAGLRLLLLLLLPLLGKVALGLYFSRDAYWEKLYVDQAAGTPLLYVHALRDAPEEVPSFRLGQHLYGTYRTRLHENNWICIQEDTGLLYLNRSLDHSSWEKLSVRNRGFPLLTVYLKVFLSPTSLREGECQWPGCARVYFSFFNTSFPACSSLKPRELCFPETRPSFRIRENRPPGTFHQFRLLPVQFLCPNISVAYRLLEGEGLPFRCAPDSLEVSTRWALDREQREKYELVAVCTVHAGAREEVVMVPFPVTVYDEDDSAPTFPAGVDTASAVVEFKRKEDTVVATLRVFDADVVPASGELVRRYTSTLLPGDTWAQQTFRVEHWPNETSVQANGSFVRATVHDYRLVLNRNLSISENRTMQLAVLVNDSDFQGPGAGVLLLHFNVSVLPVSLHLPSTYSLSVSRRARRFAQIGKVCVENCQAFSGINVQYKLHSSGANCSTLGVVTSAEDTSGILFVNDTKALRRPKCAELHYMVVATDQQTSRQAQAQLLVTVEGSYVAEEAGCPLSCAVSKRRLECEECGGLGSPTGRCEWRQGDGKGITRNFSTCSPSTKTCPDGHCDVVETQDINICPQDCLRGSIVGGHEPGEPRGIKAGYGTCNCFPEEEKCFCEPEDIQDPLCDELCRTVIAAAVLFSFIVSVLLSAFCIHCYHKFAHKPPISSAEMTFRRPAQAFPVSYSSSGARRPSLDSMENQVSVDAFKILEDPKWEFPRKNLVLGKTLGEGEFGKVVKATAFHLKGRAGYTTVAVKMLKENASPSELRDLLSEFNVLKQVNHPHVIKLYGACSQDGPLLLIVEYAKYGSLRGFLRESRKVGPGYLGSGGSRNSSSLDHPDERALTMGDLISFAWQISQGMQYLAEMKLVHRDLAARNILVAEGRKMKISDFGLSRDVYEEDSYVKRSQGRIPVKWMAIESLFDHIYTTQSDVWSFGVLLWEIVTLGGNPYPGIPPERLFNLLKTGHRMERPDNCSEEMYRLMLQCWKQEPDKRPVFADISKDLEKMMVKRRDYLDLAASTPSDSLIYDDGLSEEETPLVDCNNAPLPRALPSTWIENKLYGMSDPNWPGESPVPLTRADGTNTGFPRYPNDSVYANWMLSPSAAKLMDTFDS
UniProt P07949, whole entry M918T, looked up: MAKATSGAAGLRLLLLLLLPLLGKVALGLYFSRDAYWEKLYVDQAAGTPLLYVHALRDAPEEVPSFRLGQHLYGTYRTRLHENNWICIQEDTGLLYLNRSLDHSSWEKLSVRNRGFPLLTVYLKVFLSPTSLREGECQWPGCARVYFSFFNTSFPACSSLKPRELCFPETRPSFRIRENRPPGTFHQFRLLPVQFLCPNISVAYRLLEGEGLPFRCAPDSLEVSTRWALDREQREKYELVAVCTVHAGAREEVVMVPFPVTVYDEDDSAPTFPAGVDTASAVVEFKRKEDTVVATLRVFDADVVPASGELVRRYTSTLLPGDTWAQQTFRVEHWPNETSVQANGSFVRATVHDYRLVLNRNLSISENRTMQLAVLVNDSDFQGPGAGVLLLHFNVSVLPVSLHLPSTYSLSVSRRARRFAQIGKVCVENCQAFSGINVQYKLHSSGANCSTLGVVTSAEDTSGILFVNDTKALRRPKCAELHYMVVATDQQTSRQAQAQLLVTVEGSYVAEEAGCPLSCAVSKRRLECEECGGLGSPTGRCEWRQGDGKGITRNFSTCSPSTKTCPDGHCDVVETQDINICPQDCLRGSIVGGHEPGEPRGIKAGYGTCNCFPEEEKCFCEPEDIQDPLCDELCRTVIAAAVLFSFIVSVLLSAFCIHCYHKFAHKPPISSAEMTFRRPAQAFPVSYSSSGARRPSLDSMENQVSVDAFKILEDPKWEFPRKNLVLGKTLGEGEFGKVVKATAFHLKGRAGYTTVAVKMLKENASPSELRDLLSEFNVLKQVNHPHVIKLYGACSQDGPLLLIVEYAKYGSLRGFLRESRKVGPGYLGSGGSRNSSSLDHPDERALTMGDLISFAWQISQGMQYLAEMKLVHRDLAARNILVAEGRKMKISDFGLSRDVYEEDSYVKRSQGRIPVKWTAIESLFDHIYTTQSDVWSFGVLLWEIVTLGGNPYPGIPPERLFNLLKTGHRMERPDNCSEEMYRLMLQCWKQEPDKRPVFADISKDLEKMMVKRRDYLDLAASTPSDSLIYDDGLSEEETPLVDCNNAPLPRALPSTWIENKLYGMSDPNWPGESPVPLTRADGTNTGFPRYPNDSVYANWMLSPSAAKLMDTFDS
UniProt Q9BRS2: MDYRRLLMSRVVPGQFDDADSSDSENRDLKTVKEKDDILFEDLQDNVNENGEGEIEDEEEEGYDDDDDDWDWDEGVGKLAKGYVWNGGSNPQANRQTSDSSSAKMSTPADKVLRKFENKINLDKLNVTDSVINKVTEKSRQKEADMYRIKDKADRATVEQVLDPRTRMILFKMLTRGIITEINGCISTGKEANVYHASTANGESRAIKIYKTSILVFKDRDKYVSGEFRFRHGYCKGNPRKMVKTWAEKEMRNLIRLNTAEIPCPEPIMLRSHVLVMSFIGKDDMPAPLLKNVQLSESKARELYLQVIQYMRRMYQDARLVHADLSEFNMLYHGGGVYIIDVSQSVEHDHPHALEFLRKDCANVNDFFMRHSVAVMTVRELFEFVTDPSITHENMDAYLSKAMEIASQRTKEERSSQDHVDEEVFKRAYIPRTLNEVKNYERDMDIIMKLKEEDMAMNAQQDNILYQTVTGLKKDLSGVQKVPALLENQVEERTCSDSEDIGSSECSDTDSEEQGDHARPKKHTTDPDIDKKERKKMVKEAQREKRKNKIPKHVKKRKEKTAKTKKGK
UniProt Q01974, whole entry: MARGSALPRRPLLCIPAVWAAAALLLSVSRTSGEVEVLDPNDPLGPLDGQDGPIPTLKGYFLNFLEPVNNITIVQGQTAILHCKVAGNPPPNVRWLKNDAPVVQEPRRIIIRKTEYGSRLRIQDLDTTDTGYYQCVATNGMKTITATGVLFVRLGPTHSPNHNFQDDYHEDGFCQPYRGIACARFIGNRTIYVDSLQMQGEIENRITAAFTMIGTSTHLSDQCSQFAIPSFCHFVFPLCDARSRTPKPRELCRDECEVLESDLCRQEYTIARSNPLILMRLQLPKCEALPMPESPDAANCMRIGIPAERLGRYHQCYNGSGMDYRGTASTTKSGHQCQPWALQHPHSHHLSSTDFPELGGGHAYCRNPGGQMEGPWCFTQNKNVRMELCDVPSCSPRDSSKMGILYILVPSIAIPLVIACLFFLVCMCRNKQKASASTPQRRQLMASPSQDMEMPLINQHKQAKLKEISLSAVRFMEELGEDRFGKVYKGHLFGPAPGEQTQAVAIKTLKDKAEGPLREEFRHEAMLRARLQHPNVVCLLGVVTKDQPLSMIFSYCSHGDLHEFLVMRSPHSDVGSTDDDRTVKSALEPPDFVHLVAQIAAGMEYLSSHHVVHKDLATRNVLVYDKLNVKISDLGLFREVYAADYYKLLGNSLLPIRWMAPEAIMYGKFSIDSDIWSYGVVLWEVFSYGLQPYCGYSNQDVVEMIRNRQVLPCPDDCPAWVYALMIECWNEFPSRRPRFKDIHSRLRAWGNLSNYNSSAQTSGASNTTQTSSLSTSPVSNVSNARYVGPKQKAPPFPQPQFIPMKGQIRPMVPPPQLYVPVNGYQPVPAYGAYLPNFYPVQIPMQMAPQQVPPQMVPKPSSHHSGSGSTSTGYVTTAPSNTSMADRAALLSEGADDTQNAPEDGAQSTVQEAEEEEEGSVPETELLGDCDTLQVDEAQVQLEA
UniProt Q15418, whole entry: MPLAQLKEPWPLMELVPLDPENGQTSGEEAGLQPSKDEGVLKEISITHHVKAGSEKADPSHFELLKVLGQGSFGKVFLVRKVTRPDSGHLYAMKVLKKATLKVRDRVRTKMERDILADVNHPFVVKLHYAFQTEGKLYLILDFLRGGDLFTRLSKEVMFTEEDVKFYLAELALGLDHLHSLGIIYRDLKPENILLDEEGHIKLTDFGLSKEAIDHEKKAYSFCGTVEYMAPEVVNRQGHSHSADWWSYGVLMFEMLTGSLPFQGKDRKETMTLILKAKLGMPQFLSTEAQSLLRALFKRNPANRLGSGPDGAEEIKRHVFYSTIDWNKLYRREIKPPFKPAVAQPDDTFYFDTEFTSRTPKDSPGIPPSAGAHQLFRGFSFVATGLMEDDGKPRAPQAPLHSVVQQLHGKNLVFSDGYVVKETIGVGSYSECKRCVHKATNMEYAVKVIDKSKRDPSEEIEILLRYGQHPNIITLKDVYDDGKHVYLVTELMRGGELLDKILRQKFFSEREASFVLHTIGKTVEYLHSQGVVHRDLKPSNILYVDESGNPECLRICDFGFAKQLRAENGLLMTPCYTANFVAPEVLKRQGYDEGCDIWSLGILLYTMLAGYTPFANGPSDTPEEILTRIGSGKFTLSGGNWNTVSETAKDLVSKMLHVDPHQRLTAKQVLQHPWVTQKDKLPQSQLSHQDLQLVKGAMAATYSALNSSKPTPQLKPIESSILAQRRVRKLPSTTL
UniProt Q9NYA1, whole entry: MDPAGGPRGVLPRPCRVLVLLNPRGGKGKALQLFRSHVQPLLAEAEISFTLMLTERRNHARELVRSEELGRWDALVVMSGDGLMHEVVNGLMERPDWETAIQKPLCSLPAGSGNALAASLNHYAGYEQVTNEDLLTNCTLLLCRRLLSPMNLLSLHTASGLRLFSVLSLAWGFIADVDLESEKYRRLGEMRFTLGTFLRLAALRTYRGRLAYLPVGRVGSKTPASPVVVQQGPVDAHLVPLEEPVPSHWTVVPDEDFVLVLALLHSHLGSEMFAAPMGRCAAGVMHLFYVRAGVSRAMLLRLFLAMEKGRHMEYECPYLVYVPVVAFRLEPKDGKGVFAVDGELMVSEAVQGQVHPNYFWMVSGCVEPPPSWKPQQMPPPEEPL
UniProt Q15208: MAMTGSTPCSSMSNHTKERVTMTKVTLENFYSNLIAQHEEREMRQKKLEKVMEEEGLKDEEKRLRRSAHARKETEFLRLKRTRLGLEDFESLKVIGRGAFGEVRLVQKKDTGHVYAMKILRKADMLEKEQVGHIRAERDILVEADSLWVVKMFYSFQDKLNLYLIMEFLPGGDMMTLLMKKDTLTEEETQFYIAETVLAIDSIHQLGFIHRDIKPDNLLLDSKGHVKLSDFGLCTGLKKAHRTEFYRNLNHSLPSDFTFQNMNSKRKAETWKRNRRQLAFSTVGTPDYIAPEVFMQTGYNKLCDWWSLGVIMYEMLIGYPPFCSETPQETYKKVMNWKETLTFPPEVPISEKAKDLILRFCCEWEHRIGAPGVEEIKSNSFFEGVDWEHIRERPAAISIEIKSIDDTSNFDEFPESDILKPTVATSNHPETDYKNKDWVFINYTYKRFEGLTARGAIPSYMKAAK
UniProt P42680: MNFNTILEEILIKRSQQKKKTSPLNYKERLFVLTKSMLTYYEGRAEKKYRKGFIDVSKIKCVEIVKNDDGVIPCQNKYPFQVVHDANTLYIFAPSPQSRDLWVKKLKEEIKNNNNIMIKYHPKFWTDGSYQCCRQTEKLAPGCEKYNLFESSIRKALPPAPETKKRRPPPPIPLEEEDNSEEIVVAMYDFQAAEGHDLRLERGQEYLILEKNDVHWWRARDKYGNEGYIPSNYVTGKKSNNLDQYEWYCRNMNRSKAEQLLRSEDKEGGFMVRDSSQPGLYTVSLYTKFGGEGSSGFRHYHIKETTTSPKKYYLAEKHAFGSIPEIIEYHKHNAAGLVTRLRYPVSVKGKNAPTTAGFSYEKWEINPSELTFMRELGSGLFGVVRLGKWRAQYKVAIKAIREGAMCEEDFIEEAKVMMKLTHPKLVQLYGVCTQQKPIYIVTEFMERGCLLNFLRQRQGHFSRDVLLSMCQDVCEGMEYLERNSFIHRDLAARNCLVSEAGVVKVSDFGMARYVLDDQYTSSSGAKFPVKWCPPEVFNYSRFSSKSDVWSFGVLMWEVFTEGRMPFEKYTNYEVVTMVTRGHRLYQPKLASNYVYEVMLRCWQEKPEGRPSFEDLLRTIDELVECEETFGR
UniProt Q6PHR2: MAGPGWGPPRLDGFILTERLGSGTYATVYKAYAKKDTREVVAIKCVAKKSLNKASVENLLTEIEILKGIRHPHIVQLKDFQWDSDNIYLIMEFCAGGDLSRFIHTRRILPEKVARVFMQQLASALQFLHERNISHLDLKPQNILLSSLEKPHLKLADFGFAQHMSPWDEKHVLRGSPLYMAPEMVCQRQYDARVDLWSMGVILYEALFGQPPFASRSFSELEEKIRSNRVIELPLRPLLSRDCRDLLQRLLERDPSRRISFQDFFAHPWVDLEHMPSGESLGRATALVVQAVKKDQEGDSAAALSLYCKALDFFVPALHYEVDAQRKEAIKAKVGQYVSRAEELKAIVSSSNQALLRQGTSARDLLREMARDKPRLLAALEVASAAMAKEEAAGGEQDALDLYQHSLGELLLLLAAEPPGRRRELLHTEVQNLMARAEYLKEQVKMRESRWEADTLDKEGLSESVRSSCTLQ

How the values were obtained:
Experiment in all cases: number of time points (of 5) at which kinase-Nluc abundance scored as decreased, DMSO-normalised (count); higher = more persistent destabilization
Conditions in all cases: K562; 2-18 h
PRKCA = PRKCA (UniProt P17252)
PTK2 = PTK2 (UniProt Q05397)
PTK2B = PTK2B (UniProt Q14289)
RAF1 = RAF1 (UniProt P04049)
[1] = biological target: RAF1_S257L (clone: RAF1_mut) (UniProt P04049)
RET = RET (UniProt P07949)
[2] = biological target: RET_M918T (clone: RET_mut) (UniProt P07949)
RIOK1 = RIOK1 (UniProt Q9BRS2)
RIPK1 = RIPK1 (UniProt Q13546)
RIPK2 = RIPK2 (UniProt O43353)
ROR2 = ROR2 (UniProt Q01974)
RPS6KA1 = RPS6KA1 (UniProt Q15418)
SPHK1 = SPHK1 (UniProt Q9NYA1)
SRC = SRC (UniProt P12931)
STK24 = STK24 (UniProt Q9Y6E0)
STK38 = STK38 (UniProt Q15208)
SYK = SYK (UniProt P43405)
TEC = TEC (UniProt P42680)
TYK2 = TYK2 (UniProt P29597)
ULK3 = ULK3 (UniProt Q6PHR2)

| Structure (SMILES) | number of time points (PRKCA) | number of time points (PTK2) | number of time points (PTK2B) | number of time points (RAF1) | number of time points [1] | number of time points (RET) | number of time points [2] | number of time points (RIOK1) | number of time points (RIPK1) | number of time points (RIPK2) | number of time points (ROR2) | number of time points (RPS6KA1) | number of time points (SPHK1) | number of time points (SRC) | number of time points (STK24) | number of time points (STK38) | number of time points (SYK) | number of time points (TEC) | number of time points (TYK2) | number of time points (ULK3) |
| --- | --- | --- | --- | --- | --- | --- | --- | --- | --- | --- | --- | --- | --- | --- | --- | --- | --- | --- | --- | --- |
| CC(=O)OC(C)(C)/C=C/C(=O)[C@](C)(O)[C@H]1[C@H](O)C[C@@]2(C)[C@@H]3CC=C4[C@@H](C=C(O)C(=O)C4(C)C)[C@]3(C)C(=O)C[C@]12C [Cucurbitacin E] (2.5 µM) | 0 | 2 | 0 | 2 | 0 | 4 | 1 | 2 | 3 | 3 | 0 | 0 | 0 | 0 | 0 | 0 | 0 | 1 | 4 | 0 |
| C[C@H]1CC[C@]2(NC1)O[C@H]1C[C@H]3[C@@H]4CC[C@H]5C[C@@H](O)CC[C@]5(C)[C@H]4CC[C@]3(C)[C@H]1[C@@H]2C [Tomatidine (hydrochloride)] (10 µM) | 0 | 0 | 0 | 0 | 0 | 0 | 0 | 0 | 0 | 0 | 0 | 0 | 0 | 0 | 0 | 0 | 0 | 0 | 0 | 0 |
| CC(C)=CC[C@@H](OC(=O)CC(C)(C)O)C1=CC(=O)c2c(O)ccc(O)c2C1=O [β-Hydroxyisovalerylshikonin] (2.5 µM) | 0 | 0 | 0 | 0 | 0 | 0 | 0 | 0 | 0 | 0 | 0 | 0 | 0 | 0 | 0 | 0 | 0 | 0 | 0 | 0 |
| C[C@@H]1CC[C@H]2[C@@H](C)C(=O)O[C@@H]3O[C@@]4(C)CC[C@@H]1[C@]32OO4 [Artemisinin] (10 µM) | 0 | 0 | 0 | 0 | 0 | 0 | 0 | 0 | 0 | 0 | 0 | 0 | 0 | 0 | 0 | 0 | 0 | 0 | 0 | 0 |
| Nc1ncnc2c1ncn2[C@@H]1O[C@@H]2COP(O)(=S)O[C@H]2[C@H]1O (stereo not given in full) [Sp-cAMPS (sodium salt)] (10 µM) | 0 | 0 | 0 | 0 | 0 | 0 | 0 | 0 | 0 | 0 | 0 | 0 | 0 | 0 | 0 | 0 | 0 | 0 | 0 | 0 |
| C=CC(=O)Nc1ccc2[nH]c(=O)n(C3CCN(Cc4ccc(-c5nc6cc[nH]c(=O)c6cc5-c5ccccc5)cc4)CC3)c2c1 [Borussertib] (10 µM) | 0 | 0 | 0 | 0 | 0 | 0 | 0 | 0 | 0 | 0 | 0 | 0 | 0 | 0 | 0 | 0 | 0 | 0 | 1 | 0 |
| Cc1ccccc1-n1c(Cn2cnc3c(N)ncnc32)nc2cccc(C)c2c1=O (10 µM) | 0 | 0 | 0 | 0 | 0 | 0 | 0 | 0 | 0 | 0 | 0 | 0 | 0 | 0 | 0 | 0 | 0 | 0 | 0 | 0 |
| O=c1ccc2cc(O[C@@H]3O[C@H](CO)[C@@H](O)[C@H](O)[C@H]3O)c(O)cc2o1 [Esculin] (10 µM) | 0 | 0 | 0 | 0 | 0 | 0 | 0 | 0 | 0 | 0 | 0 | 0 | 0 | 0 | 0 | 0 | 0 | 0 | 0 | 0 |
| Cn1cc(C2=C(c3cn(C4CCN(Cc5ccccn5)CC4)c4ccccc34)C(=O)NC2=O)c2ccccc21 [Enzastaurin] (10 µM) | 0 | 0 | 0 | 0 | 0 | 0 | 0 | 0 | 0 | 0 | 0 | 0 | 0 | 0 | 1 | 0 | 0 | 0 | 0 | 0 |
| O=C(/C=C/c1ccccc1)OC[C@H]1O[C@@H](O[C@@H]2OC=C[C@H]3[C@H](O)[C@@H]4O[C@]4(CO)[C@@H]23)[C@H](O)[C@@H](O)[C@@H]1O [Picroside I] (10 µM) | 0 | 0 | 0 | 0 | 0 | 0 | 0 | 0 | 0 | 0 | 0 | 0 | 0 | 0 | 0 | 0 | 0 | 0 | 0 | 0 |
| N#CC(C#N)=Cc1ccc([N+](=O)[O-])c(O)c1 (10 µM) | 0 | 0 | 0 | 0 | 0 | 0 | 0 | 0 | 0 | 0 | 0 | 0 | 0 | 0 | 0 | 0 | 0 | 0 | 0 | 0 |
| C[C@H]1CC[C@]2(NC1)O[C@H]1C[C@H]3[C@@H]4CC[C@H]5C[C@@H](O)CC[C@]5(C)[C@H]4CC[C@]3(C)[C@H]1[C@@H]2C [Tomatidine] (2 µM) | 0 | 0 | 0 | 0 | 0 | 0 | 0 | 0 | 0 | 0 | 0 | 0 | 0 | 0 | 0 | 0 | 0 | 0 | 0 | 0 |
| O=c1[nH]c2ccccc2n1C1CCN(CCCC(c2ccc(F)cc2)c2ccc(F)cc2)CC1 [Pimozide] (2.5 µM) | 0 | 0 | 0 | 0 | 0 | 0 | 0 | 0 | 0 | 0 | 0 | 0 | 0 | 0 | 0 | 0 | 0 | 0 | 0 | 0 |
| COC[C@H]1OC(=O)c2coc3c2[C@@]1(C)C1=C(C3=O)[C@@H]2CCC(=O)[C@@]2(C)C[C@H]1OC(C)=O [Wortmannin] (2.5 µM) | 0 | 4 | 0 | 1 | 3 | 0 | 2 | 0 | 3 | 0 | 0 | 0 | 0 | 0 | 0 | 0 | 0 | 0 | 3 | 0 |
| CCN1CCN(C(=O)Cc2ccc(Nc3ncc(F)c(Nc4ccc(C(=O)Nc5ccccc5Cl)cc4)n3)cc2)CC1 (2.5 µM) | 0 | 0 | 0 | 0 | 0 | 0 | 0 | 0 | 0 | 0 | 0 | 0 | 0 | 0 | 0 | 0 | 0 | 0 | 0 | 0 |
| C[C@H]1CC[C@]2(NC1)O[C@H]1C[C@H]3[C@@H]4CC[C@H]5C[C@@H](O[C@@H]6O[C@H](CO)[C@H](O[C@@H]7O[C@H](CO)[C@@H](O)[C@H](O[C@@H]8OC[C@@H](O)[C@H](O)[C@H]8O)[C@H]7O[C@@H]7O[C@H](CO)[C@@H](O)[C@H](O)[C@H]7O)[C@H](O)[C@H]6O)CC[C@]5(C)[C@H]4CC[C@]3(C)[C@H]1[C@@H]2C [Tomatine] (2.5 µM) | 0 | 0 | 0 | 0 | 0 | 5 | 0 | 0 | 0 | 0 | 0 | 0 | 0 | 0 | 0 | 1 | 3 | 0 | 4 | 0 |
| O=C1C=CC[C@@H]2[C@H]3CCCN4CCC[C@@H](CN12)[C@@H]34 [Sophocarpine (monohydrate)] (2.5 µM) | 0 | 0 | 0 | 0 | 0 | 0 | 0 | 0 | 0 | 0 | 0 | 0 | 0 | 0 | 0 | 0 | 0 | 0 | 0 | 0 |
| COc1ccc2c(c1)[nH]c1c(C)nccc12 [Harmine] (10 µM) | 0 | 0 | 0 | 0 | 0 | 0 | 0 | 0 | 0 | 0 | 0 | 0 | 0 | 0 | 0 | 0 | 0 | 0 | 0 | 0 |
| O=c1[nH]c2ccccc2n1C1CCN(Cc2ccc(-c3[nH]c4cc5ncnc5cc4nc3-c3ccccc3)cc2)CC1 [AKT inhibitor VIII] (2.5 µM) | 0 | 0 | 0 | 0 | 0 | 0 | 0 | 0 | 0 | 0 | 0 | 0 | 0 | 0 | 0 | 0 | 0 | 0 | 0 | 0 |
| O=C(N[C@@H](COc1ccc2[nH]c(=O)[nH]c2c1)c1ccccc1)c1cccn(Cc2ccc(F)c(F)c2)c1=O (2.5 µM) | 0 | 0 | 0 | 0 | 0 | 0 | 0 | 0 | 0 | 0 | 0 | 0 | 0 | 0 | 0 | 0 | 0 | 0 | 0 | 0 |
| CCCS(=O)(=O)Nc1ccc(F)c(-n2cc(-c3cncnc3)c3nc(N(C)C4CCN(CC)CC4)ccc32)c1F (2 µM) | 0 | 0 | 0 | 0 | 0 | 0 | 0 | 0 | 0 | 0 | 0 | 0 | 0 | 0 | 0 | 0 | 0 | 0 | 0 | 0 |
| O=C(O)c1sc2cc(Cl)ccc2c1Cl (10 µM) | 0 | 0 | 0 | 0 | 0 | 0 | 0 | 0 | 0 | 0 | 0 | 0 | 0 | 0 | 0 | 0 | 0 | 0 | 0 | 0 |
| N#CC(C#N)=NNc1cccc(Cl)c1 (2.5 µM) | 0 | 0 | 0 | 0 | 2 | 0 | 0 | 1 | 0 | 1 | 0 | 0 | 0 | 0 | 0 | 0 | 0 | 0 | 3 | 0 |

Part of the list above, set out differently:
Structure (SMILES)	number of time points (PRKCA)	number of time points (PTK2)	number of time points (PTK2B)	number of time points (RAF1)	number of time points [1]	number of time points (RET)	number of time points [2]	number of time points (RIOK1)	number of time points (RIPK1)	number of time points (RIPK2)	number of time points (ROR2)	number of time points (RPS6KA1)	number of time points (SPHK1)	number of time points (SRC)	number of time points (STK24)	number of time points (STK38)	number of time points (SYK)	number of time points (TEC)	number of time points (TYK2)	number of time points (ULK3)
N#CC(C#N)=Cc1ccc([N+](=O)[O-])c(O)c1 (10 µM)	0	0	0	0	0	0	0	0	0	0	0	0	0	0	0	0	0	0	0	0
C[C@H]1CC[C@]2(NC1)O[C@H]1C[C@H]3[C@@H]4CC[C@H]5C[C@@H](O)CC[C@]5(C)[C@H]4CC[C@]3(C)[C@H]1[C@@H]2C [Tomatidine] (2 µM)	0	0	0	0	0	0	0	0	0	0	0	0	0	0	0	0	0	0	0	0
O=c1[nH]c2ccccc2n1C1CCN(CCCC(c2ccc(F)cc2)c2ccc(F)cc2)CC1 [Pimozide] (2.5 µM)	0	0	0	0	0	0	0	0	0	0	0	0	0	0	0	0	0	0	0	0
COC[C@H]1OC(=O)c2coc3c2[C@@]1(C)C1=C(C3=O)[C@@H]2CCC(=O)[C@@]2(C)C[C@H]1OC(C)=O [Wortmannin] (2.5 µM)	0	4	0	1	3	0	2	0	3	0	0	0	0	0	0	0	0	0	3	0
CCN1CCN(C(=O)Cc2ccc(Nc3ncc(F)c(Nc4ccc(C(=O)Nc5ccccc5Cl)cc4)n3)cc2)CC1 (2.5 µM)	0	0	0	0	0	0	0	0	0	0	0	0	0	0	0	0	0	0	0	0
